# Counter-ions that a name gives are not always drawn. Screen size: about 5,300 compounds; about 130 (2.5%) showed an effect of 50% or more. Some of the results follow.
# Tested on: M. mycetomatis strain mm55
# Conditions: primary screen, metabolic activity vs growth control; 96 h, 2 µM; inhibitor
row,SMILES,% viability
1,"C[C@H]1[C@@H](O)O[C@@H]2O[C@@]3(C)CC[C@H]4[C@H](C)CC[C@@H]1[C@@]24OO3 [ONC0002456, artenimol]",93.7%
2,"Cc1cc(C)cc(C(=O)N(C)[C@H](Cc2ccc(-c3ccccc3)cc2)C(=O)N[C@@H](Cc2c[nH]c3ccccc23)C(=O)O)c1 [ONC0002527, irl2500]",56%
3,"CCCCCC(C)N (stereo not shown) [ONC0003207, tuaminoheptane sulfate]",110.6%
4,"Cc1cccc(/C=C/c2ccccc2)n1 [ONC0001321, sib1893]",87.7%
5,"O=C(O)CCC(=O)OC[C@@H](NC(=O)C(Cl)Cl)[C@H](O)c1ccc([N+](=O)[O-])cc1 [ONC0000292, chloramphenicol sodium succinate]",103%
6,"COc1ccc2cc(CCC(C)=O)ccc2c1 [ONC0002389, nabumetone]",70.8%
7,"Cc1cc(C)c(N)c(C#Cc2cccc(F)c2)n1 [ONC0003034, adx10059]",89.6%
8,"CN(C)c1ccc(C(=O)NCCCCCCC(=O)NO)cc1 [ONC0005280, m344]",132.9%
9,"O=C(N[C@H](Cc1ccccc1)C(=O)O)c1sc2cc(F)ccc2c1Cl [ONC0000057, cucpt4a]",102.7%
10,"C#CCN(C)Cc1ccccc1 [ONC0000568, pargyline hydrochloride]",78.15%
11,"CCCCn1ccc(N2CCC(c3ccccc3)CC2)c(Cl)c1=O [ONC0000859, jnj40411813]",84.4%
12,"CC(=O)O/N=C1\C(=O)N(Cc2cc(Cl)ccc2Cl)c2ccc(Cl)cc21 [ONC0005151, ldn57444]",84.8%
13,"OC(CCN1CCCCC1)(c1ccccc1)C1CC2C=CC1C2 (stereo not shown) [ONC0001808, biperiden hydrochloride]",61.17%
14,"CCN(CC)CC#CCOC(=O)C(O)(c1ccccc1)C1CCCCC1 (stereo not shown) [ONC0004166, oxybutynin chloride]",117.4%
15,"O=C(Cc1cccc(OC(F)(F)F)c1)Nc1ccc(CCCCc2nnc(NC(=O)Cc3ccccn3)s2)nn1 [ONC0002070, telaglenastat]",82.13%
16,"Cc1ncc([N+](=O)[O-])n1CCO [ONC0000454, metronidazole]",90.94%
17,"Cc1nc(Nc2ccc(F)cc2)nc(N2CCc3ccccc3C2C)c1C (stereo not shown) [ONC0000346, revaprazan hydrochloride]",77.77%
18,"CN(C)CCOC1=Cc2ccccc2Sc2ccc(Cl)cc21 [ONC0002335, zotepine]",84.64%
19,"CCN(Cc1ccncc1)C(=O)C(CO)c1ccccc1 (stereo not shown) [ONC0003229, tropicamide]",99.09%

# Quoted from the listing, two compounds:
row,SMILES,% viability
16,"Cc1ncc([N+](=O)[O-])n1CCO [ONC0000454, metronidazole]",90.94%
17,"Cc1nc(Nc2ccc(F)cc2)nc(N2CCc3ccccc3C2C)c1C (stereo not shown) [ONC0000346, revaprazan hydrochloride]",77.77%

# (cont.)

row,SMILES,% viability
1,"O=C(NCCNCC(O)COc1ccc(O)cc1)N1CCOCC1 (stereo not shown) [ONC0002663, xamoterol fumarate]",68.23%
2,"CC(C)(C)NCC(O)COc1cc(Cl)ccc1Cl (stereo not shown) [ONC0002155, cloranolol]",91.06%
3,"C[C@]12CC[C@H](O)CC1=CCC1C2CC[C@]2(C)C(n3cnc4ccccc43)=CCC12 (stereo partly shown) [ONC0005266, galeterone tok001]",144.8%
4,"N=C(N)c1cc2ccc(OC(=O)c3cccs3)cc2s1 [ONC0004238, bcx 1470 methanesulfonate]",62.8%
5,"Oc1cc2c(cc1O)[C@H]1c3ccccc3CN[C@@H]1CC2 (racemic) [ONC0000064, dihydrexidine]",117.8%
6,"CC(=O)O[C@H]1C[C@H](O[C@H]2[C@@H](O)C[C@H](O[C@H]3[C@@H](O)C[C@H](O[C@H]4CC[C@@]5(C)[C@H](CC[C@@H]6[C@@H]5C[C@@H](O)[C@]5(C)[C@@H](C7=CC(=O)OC7)CC[C@]65O)C4)O[C@@H]3C)O[C@@H]2C)O[C@H](C)[C@H]1O[C@@H]1O[C@H](CO)[C@@H](O)[C@H](O)[C@H]1O [ONC0000550, lanatoside c]",73.77%
7,"CN1C2CCCC1CC(NC(=O)c1nn(C)c3ccccc13)C2 (stereo not shown) [ONC0003247, granisetron hydrochloride]",147.1%
8,"Cn1nc(-c2cccc(F)c2)n(C)c1=S [ONC0003577, suritozole]",82.85%
9,"COc1ccc2[nH]cc(CCNC(C)=O)c2c1 [ONC0001354, melatonin]",81.35%
10,"Cc1ccc(C(=O)c2cc(O)c(O)c([N+](=O)[O-])c2)cc1 [ONC0004575, tolcapone]",67.61%
11,"NC[C@H]1O[C@H](O[C@H]2[C@H](O[C@@H]3O[C@H](CO)[C@@H](O)[C@H]3O)[C@@H](O)[C@H](N)C[C@@H]2N)[C@H](N)[C@@H](O)[C@@H]1O [ONC0001104, ribostamycin sulfate]",39.68%
12,"O=C(Nc1ccc(Cl)cc1)Nc1cccc(-c2cccc(N3CCCC3)n2)c1 [ONC0003054, psncbam1]",61.4%
13,"O=C(N/N=C/c1ccc(O)c(O)c1)c1cc2ccccc2cc1O [ONC0004433, dynasore]",113%
14,"BrC1C(Br)C(Br)C(Br)C(Br)C1Br (stereo not shown) [ONC0001305, 123456hexabromocyclohexane]",67.14%
15,"O=S(=O)(O)c1ccc(-c2c3nc(c(-c4ccc(S(=O)(=O)O)cc4)c4ccc([nH]4)c(-c4ccc(S(=O)(=O)O)cc4)c4nc(c(-c5ccc(S(=O)(=O)O)cc5)c5ccc2[nH]5)C=C4)C=C3)cc1 [ONC0003489, tpps4]",90.84%
16,"CS(=O)(=O)Nc1ccc(-c2coc3cc(OCc4cccc(C(=O)O)c4)ccc3c2=O)cc1 [ONC0002622, cvt10216]",92.76%
17,"O=C1Nc2ccccc2/C1=C1/Nc2ccccc2/C1=N\O [ONC0001436, indirubin3monoxime]",53.18%
18,"C=CC[C@@H]1/C=C(\C)C[C@H](C)C[C@H](OC)[C@H]2O[C@@](O)(C(=O)C(=O)N3CCCC[C@H]3C(=O)O[C@H](/C(C)=C/[C@@H]3CC[C@@H](O)[C@H](OC)C3)[C@H](C)[C@@H](O)CC1=O)[C@H](C)C[C@@H]2OC [ONC0001947, tacrolimus]",110.9%
